The assay deals with G9a (mouse (endogenous in mESCs)) (UniProt Q9Z148). As to the kind of experiment: co-IP; 200 μg nuclear extract diluted to approximately 170 mM KCl; IP overnight at 4°C with mouse monoclonal anti-KAP1, anti-G9a or mouse IgG; protein G-Dynabeads; washes in 20 mM HEPES pH 7.9, 200 mM KCl, 1% NP-40, 10% glycerol; Western blot.

Amino acid sequences for entries named in this document (tags omitted).
UniProt Q9Z148: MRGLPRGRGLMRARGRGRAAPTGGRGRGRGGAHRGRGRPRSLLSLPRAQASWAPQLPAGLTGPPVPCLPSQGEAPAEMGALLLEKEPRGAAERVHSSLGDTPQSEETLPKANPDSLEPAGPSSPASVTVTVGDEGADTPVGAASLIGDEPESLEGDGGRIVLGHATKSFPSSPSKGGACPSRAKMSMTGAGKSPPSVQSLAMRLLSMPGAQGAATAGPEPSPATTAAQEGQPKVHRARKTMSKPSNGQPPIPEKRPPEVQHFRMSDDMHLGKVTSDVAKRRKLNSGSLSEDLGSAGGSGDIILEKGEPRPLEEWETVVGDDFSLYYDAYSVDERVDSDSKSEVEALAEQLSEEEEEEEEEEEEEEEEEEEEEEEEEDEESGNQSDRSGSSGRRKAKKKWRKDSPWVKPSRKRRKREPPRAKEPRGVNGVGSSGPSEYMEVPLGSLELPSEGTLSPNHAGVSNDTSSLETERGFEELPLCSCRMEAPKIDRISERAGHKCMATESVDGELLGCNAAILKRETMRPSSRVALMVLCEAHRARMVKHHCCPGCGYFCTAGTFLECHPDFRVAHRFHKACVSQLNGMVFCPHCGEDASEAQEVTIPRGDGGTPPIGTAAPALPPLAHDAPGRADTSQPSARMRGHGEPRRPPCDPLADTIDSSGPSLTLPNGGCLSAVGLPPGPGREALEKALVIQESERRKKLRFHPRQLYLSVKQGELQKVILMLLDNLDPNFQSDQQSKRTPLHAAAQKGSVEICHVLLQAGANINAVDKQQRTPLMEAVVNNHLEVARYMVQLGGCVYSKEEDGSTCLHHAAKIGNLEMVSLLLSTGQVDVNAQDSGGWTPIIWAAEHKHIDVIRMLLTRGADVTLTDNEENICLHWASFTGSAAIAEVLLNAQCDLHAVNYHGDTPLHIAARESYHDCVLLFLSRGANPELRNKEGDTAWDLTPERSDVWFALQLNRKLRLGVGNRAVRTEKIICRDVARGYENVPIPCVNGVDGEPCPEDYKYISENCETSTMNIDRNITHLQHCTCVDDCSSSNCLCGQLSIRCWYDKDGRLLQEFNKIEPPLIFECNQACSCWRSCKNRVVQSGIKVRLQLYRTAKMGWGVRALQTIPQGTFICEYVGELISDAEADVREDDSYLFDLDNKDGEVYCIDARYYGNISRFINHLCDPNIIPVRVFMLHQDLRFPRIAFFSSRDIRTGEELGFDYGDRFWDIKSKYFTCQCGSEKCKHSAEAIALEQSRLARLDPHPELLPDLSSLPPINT
UniProt P83917: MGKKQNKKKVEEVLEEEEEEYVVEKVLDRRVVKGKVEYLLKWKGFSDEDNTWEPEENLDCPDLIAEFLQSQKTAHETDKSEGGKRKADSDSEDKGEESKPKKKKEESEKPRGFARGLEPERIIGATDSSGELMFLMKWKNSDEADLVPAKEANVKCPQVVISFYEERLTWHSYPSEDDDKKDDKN

Results are given in words; binding and its absence hold for the method and conditions named. In cells and extracts the contact can be indirect. Some binding calls cover weakened binding; strength is not graded here.

In the case of “HP1β (encoded by Cbx1) (from UniProt P83917 1-185)”, the binding result is “binds”.

The values above are taken from paper PMC3682905.
